Measurements from patent US20140178390A1.
No constants are given. Whether binding was seen depends on the method and setting. Some binding calls cover weakened binding; strength is not graded here.

By UniProt entry, the sequences of proteins in these tests, tags left out. Where a name states a change or a piece, a line headed by the entry shows the natural chain unless it says otherwise.
UniProt P25106: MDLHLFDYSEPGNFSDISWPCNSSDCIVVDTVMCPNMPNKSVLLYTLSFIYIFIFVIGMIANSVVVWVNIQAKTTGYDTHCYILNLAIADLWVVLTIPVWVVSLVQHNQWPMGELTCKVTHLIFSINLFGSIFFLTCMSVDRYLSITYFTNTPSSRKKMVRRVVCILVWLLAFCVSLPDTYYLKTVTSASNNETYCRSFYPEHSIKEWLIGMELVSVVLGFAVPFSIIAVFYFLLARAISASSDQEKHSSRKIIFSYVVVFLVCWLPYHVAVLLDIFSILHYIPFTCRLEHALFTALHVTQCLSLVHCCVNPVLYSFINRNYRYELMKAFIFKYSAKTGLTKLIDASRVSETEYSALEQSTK

Molecular target: Human CXCR7 (human) (UniProt P25106)
Test: [125I]-CXCL12 displacement by cold chemokine (10^-7 M) on head and neck cancer cells

binding: binds
B1: CXCL11 (ligand, UniProt O14625 22-94, looked up)
chain: FPMFKRGRCLCIGPGVKAVKVADIEKASIMYPSNNCDKIEVIITLKENKGQRCLNPKSKQARLIIKKVERKNF
